The source of these data is PMC5789083, “Mechanisms driving the antibacterial and antibiofilm properties of Hp1404 and its analogue peptides against multidrug-resistant Pseudomonas aeruginosa” (Scientific Reports, 2018).

SMILES strings stand for the structures.

The test system of the assay is P. aeruginosa 1034. Details: species or system BALB/c mice. The conditions noted are these: mouse, in vivo. As for the experimental part:
BALB/c mice (6 weeks old) were used in this study. The mice were shaved and intradermally injected with 20 µl of P. aeruginosa (1 × 10^8 CFU/ml) in PBS. […] […]; Chosun University, Gwangju, South Korea).

With `O=C(O)c1cn(C2CC2)c2cc(N3CCNCC3)c(F)cc2c1=O` [Ciprofloxacin, ciprofloxacin, reference compound], the “bacterial colonies in infected skin” value is listed as “slightly reduced”.
